The values that follow come from publication PMC3489787, “Characterization of EssB, a protein required for secretion of ESAT-6 like proteins in Staphylococcus aureus” (BMC Microbiology, 2012).

Chains of the proteins cited; added tags and fusions are not shown. Lines headed by an entry give the natural chain unless they say otherwise; changes in a name come on top.
UniProt Q2G185: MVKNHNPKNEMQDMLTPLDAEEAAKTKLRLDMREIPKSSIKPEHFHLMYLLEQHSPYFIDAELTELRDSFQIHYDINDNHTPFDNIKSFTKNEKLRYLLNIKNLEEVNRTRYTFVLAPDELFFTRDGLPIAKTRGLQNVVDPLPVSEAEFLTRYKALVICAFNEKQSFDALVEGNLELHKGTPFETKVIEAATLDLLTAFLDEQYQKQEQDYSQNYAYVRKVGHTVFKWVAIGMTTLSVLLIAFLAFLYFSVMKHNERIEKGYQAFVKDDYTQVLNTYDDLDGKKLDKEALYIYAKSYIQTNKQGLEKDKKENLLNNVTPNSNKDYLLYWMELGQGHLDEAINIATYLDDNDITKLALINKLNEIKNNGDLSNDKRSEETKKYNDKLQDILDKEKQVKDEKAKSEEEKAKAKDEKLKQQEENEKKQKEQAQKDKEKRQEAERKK

No constants are given. Whether binding was seen depends on the method and setting. Some binding calls cover weakened binding; strength is not graded here.

Assay [1] deals with EssB (full length, recombinant) (Staphylococcus aureus) (UniProt Q2G185). Description: SEC; gel filtration of EssB with the protein concentration increased or decreased by a factor of 10; data not shown; both purified.
Assay [2] has the same target. Description: SEC; about 100 ug of each purified protein, tags removed, on Superdex 75 10/300 GL in 50 mM Tris-HCl pH 8.0, 150 mM NaCl, 1 mM DTT at 4 °C, 0.5 ml/min; fractions on Coomassie-stained SDS-PAGE; calibrated with aldolase 158, conalbumin 75, ovalbumin 43, myoglobin 17 kDa (the results name a Sephacryl S-200 column); both purified.
Assay [3] deals with EssB^C (Staphylococcus aureus) (UniProt Q2G185). The description is as above.
In assay [4] the target is EssB^N (Staphylococcus aureus) (UniProt Q2G185). The description is as above.

On to “EssB (full length, recombinant) (from UniProt Q2G185 1-444)”, for which the binding result in assay [1] and in assay [2] was “binds” in each case.
Take “EssB^C (from UniProt Q2G185 253-444) (domain or fragment)”: the binding result in assay [3] was “no binding”.
Consider “EssB^N (from UniProt Q2G185 1-223) (domain or fragment)”, for which the binding entry in assay [4] was “no binding”.
